Measurements reported in PubChem BioAssay AID1259254 (NCATS, 2017).
Purpose: 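Finding genes that stop cells copying their DNA twice in one cycle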 (primary screen). System: human HCT116 colorectal cancer cells. Knock-down reagent: single siRNA against human genes. Time to read-out: 3 days. Measured: 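Nuclei stained with Hoechst and imaged; cell-cycle phase assigned by DNA content; G2 share scaled per plate, non-targeting siRNA 0%, GMNN siRNA 100%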. Reading the numbers: G2 robust z-score: higher = more G2 cells, more excess DNA replication. Hit rule: 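An siRNA counts as active if its G2 robust z-score lies at least 5 MADs above the screen median; here such calls match roughly 38% of GMNN control or more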.
The deposit covers about 59,000 reagents; shown is a part drawn at random. Over the whole deposit, about 1,550 (2.6%) got an active call. 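G2 share is only a proxy for re-replication; each gene was hit by three separate siRNAs, and active genes were retested.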 Not all columns of the deposit are shown. Reagent sequences are not shown. Not given: the amount of reagent.

TBL1Y [SID160753779]
- G2 robust z-score: -0.673
- Call: inactive

TBL1Y [SID160753780]
- G2 robust z-score: 0.739
- Call: inactive

TBL1Y [SID160753781]
- G2 robust z-score: 0.239
- Call: inactive

DCAF17 [SID160750021]
- G2 robust z-score: 1.9
- Call: inactive

DCAF17 [SID160750023]
- G2 robust z-score: 1.53
- Call: inactive

DCAF17 [SID160750024]
- G2 robust z-score: -0.295
- Call: inactive

ERV3-1 [SID160761822]
- G2 robust z-score: 0.956
- Call: inactive

ERV3-1 [SID160761833]
- G2 robust z-score: 0.0923
- Call: inactive

ERV3-1 [SID160761843]
- G2 robust z-score: 0.914
- Call: inactive

ANKRD13C-DT [SID160730043]
- G2 robust z-score: 0.684
- Call: inactive

ANKRD13C-DT [SID160730044]
- G2 robust z-score: -0.387
- Call: inactive

ANKRD13C-DT [SID160730045]
- G2 robust z-score: -0.382
- Call: inactive

A portion from the list above, as a working copy:
DCAF17 [SID160750024]
- G2 robust z-score: -0.295
- Call: inactive

ERV3-1 [SID160761822]
- G2 robust z-score: 0.956
- Call: inactive

ERV3-1 [SID160761833]
- G2 robust z-score: 0.0923
- Call: inactive

ERV3-1 [SID160761843]
- G2 robust z-score: 0.914
- Call: inactive

The results go on:
TRPM8 [SID160748547]
- G2 robust z-score: 0.349
- Call: inactive

TRPM8 [SID160748549]
- G2 robust z-score: 4.16
- Call: inactive

TRPM8 [SID160748550]
- G2 robust z-score: 0.695
- Call: inactive

VIPAS39 [SID160747230]
- G2 robust z-score: -0.173
- Call: inactive

VIPAS39 [SID160747231]
- G2 robust z-score: -0.161
- Call: inactive

VIPAS39 [SID160747232]
- G2 robust z-score: -0.205
- Call: inactive

KCTD15 [SID160748534]
- G2 robust z-score: 0.663
- Call: inactive

KCTD15 [SID160748535]
- G2 robust z-score: 3.5
- Call: inactive

KCTD15 [SID160748536]
- G2 robust z-score: 0.646
- Call: inactive

VN1R4 [SID160763914]
- G2 robust z-score: 0.764
- Call: inactive

VN1R4 [SID160763915]
- G2 robust z-score: 0.335
- Call: inactive

VN1R4 [SID160763916]
- G2 robust z-score: -0.00234
- Call: inactive
